Experimental data reported in PubChem BioAssay (EPA / NIEHS).
Values joined by “and” are separate entries in the source; they are usually repeats but may differ in a detail not shown here. Equal values may be shown once. Inconclusive means that the source gave no clear call. Such entries were picked first, then a sample of the others. For part of these data: Potencies of inconclusive entries are doubtful fits and often do not repeat. Some compounds were tested as several samples or in several runs, with calls that do not always agree. Active and inactive are the calls of the source. The calls were made as follows: active = hit-call score of the fitted dose curve at least 0.9, where 1 is the maximum; inconclusive = response in the unintended direction; inactive = score below 0.9.

The chains behind the UniProt entries cited, without tags or fusion partners. Where a name states a change or a piece, a line headed by the entry shows the natural chain unless it says otherwise.
UniProt Q13133, whole entry, looked up: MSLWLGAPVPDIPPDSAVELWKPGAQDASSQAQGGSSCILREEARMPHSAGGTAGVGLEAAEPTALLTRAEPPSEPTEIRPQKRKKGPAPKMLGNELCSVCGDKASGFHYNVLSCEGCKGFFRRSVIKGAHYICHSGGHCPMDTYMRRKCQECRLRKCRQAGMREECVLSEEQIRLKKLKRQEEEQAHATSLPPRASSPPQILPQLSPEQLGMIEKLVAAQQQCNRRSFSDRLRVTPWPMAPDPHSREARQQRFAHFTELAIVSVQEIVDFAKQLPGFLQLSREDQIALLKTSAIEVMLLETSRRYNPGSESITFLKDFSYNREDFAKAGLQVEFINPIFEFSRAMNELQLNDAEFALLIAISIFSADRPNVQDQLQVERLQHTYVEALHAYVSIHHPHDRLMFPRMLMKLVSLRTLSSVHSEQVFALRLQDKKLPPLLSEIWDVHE
UniProt P41235: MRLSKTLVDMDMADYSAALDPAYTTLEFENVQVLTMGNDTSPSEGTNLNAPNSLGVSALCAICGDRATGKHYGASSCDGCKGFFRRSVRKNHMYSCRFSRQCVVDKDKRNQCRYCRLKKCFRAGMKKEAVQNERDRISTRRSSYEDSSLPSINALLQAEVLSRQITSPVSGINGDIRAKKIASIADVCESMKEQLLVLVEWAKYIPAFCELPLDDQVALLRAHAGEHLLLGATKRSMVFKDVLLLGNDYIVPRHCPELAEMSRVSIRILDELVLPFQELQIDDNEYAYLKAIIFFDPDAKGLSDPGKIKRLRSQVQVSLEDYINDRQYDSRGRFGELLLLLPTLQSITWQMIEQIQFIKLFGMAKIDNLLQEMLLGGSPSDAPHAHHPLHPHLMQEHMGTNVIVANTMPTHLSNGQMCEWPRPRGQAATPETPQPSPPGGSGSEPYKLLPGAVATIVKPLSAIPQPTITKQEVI
UniProt P43354, whole entry, looked up: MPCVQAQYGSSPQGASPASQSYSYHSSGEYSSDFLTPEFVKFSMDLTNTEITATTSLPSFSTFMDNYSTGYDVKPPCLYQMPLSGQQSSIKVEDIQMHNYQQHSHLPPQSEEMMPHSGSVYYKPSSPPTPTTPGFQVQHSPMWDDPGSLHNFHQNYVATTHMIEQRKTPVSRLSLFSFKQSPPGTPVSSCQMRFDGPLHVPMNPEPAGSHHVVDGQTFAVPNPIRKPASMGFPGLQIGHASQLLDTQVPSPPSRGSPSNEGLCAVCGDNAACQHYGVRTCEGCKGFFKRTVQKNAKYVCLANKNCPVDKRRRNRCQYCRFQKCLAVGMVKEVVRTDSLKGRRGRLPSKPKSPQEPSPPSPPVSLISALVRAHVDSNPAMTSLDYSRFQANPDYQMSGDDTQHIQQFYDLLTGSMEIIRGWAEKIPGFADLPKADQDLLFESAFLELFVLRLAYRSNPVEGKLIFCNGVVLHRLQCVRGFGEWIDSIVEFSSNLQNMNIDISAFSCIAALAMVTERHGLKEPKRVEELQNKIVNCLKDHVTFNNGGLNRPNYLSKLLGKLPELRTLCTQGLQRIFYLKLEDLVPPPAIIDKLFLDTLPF
UniProt Q92753: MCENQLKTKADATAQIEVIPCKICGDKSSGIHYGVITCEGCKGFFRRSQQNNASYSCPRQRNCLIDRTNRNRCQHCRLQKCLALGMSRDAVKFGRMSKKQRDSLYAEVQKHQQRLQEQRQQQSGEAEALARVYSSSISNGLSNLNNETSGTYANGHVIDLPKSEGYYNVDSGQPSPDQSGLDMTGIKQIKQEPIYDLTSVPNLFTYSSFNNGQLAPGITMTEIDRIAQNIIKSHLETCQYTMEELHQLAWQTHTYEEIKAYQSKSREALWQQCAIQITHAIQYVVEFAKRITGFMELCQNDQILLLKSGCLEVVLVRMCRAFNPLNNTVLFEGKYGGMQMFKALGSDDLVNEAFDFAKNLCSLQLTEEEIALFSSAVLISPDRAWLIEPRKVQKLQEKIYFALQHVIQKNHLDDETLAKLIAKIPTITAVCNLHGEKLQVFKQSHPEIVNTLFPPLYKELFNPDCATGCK
UniProt P51449: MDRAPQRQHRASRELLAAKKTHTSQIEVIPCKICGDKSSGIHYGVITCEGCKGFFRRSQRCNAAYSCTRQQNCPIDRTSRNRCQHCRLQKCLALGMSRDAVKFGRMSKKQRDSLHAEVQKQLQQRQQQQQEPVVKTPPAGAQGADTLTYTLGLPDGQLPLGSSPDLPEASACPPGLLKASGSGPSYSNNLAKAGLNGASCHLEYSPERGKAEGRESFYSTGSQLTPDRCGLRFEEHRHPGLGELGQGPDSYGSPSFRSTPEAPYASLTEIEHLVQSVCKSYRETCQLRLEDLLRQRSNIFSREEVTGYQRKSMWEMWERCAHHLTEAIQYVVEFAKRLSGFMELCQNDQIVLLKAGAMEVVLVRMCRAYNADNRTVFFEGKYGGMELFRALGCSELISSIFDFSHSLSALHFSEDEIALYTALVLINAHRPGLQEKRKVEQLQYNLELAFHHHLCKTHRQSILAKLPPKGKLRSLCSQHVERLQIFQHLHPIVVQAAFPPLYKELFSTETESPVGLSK
UniProt P10827: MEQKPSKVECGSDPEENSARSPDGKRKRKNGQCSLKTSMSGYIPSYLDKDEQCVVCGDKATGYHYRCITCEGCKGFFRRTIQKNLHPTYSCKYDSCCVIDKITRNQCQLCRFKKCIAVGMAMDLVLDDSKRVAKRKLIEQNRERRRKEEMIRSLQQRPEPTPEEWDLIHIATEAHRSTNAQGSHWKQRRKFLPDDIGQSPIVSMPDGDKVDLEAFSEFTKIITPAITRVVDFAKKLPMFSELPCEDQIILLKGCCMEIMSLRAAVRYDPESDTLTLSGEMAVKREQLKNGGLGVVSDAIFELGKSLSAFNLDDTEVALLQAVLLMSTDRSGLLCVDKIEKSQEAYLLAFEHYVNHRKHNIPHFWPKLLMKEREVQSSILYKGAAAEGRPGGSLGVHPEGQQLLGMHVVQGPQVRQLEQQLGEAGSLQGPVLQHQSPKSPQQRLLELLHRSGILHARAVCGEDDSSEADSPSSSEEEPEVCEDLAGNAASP
UniProt Q07869: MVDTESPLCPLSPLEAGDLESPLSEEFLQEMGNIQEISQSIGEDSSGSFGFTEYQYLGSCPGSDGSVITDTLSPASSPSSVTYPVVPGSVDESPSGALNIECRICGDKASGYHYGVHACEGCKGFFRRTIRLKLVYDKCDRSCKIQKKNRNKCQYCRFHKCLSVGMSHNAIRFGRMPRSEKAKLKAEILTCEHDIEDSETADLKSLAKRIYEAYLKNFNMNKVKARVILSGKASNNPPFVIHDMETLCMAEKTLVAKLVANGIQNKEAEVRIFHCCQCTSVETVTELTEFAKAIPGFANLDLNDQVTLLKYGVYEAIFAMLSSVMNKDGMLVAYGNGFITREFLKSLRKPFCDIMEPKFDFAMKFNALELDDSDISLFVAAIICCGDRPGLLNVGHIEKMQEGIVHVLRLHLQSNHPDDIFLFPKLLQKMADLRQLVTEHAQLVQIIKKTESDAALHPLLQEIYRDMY
UniProt P10826, whole entry, looked up: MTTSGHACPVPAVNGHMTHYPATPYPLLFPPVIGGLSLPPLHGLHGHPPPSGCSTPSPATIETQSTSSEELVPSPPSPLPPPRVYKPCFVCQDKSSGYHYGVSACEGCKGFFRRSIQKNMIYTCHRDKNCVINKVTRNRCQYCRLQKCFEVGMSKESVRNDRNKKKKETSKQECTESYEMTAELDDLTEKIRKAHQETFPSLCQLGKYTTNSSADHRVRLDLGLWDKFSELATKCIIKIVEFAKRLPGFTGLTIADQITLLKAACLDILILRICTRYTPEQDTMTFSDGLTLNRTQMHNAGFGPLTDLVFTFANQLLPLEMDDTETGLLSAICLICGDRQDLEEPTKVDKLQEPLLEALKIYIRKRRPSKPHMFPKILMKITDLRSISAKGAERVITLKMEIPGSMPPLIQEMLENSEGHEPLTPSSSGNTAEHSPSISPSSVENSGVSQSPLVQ
UniProt P10276, whole entry, looked up: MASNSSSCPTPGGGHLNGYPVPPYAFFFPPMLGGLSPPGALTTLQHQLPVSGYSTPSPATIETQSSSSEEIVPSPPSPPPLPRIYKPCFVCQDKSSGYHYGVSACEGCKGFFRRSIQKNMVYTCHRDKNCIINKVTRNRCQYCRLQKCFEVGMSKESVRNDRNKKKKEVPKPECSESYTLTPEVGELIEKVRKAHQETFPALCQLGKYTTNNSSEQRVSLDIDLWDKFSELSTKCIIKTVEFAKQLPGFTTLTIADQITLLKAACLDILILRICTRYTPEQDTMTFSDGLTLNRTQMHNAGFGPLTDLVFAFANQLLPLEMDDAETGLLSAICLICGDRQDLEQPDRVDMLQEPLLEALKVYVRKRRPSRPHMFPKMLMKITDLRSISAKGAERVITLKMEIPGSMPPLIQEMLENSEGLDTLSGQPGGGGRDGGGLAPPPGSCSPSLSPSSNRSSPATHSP
UniProt P13631, whole entry, looked up: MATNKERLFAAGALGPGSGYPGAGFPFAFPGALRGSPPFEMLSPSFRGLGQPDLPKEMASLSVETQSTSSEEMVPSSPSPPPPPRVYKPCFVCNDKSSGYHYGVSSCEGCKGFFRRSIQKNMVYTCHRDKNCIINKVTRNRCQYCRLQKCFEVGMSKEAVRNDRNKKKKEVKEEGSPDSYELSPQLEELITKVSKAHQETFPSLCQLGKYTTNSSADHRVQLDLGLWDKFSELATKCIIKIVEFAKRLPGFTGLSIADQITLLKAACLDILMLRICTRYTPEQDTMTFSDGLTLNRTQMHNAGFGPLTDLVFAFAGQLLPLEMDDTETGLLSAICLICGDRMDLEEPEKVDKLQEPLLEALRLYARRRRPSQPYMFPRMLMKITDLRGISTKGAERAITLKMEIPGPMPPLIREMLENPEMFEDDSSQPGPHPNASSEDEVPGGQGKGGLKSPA
UniProt P11473: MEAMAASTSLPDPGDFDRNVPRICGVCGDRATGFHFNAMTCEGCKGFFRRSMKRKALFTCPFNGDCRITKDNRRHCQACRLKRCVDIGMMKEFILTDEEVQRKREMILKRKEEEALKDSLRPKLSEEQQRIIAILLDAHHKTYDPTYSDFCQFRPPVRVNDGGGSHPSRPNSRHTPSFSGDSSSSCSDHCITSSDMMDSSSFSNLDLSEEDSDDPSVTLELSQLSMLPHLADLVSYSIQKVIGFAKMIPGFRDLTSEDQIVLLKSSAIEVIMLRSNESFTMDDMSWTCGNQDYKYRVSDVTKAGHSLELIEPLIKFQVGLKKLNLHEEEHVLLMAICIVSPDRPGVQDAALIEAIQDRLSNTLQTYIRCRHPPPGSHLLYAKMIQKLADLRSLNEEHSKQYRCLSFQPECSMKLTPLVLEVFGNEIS
UniProt P19793: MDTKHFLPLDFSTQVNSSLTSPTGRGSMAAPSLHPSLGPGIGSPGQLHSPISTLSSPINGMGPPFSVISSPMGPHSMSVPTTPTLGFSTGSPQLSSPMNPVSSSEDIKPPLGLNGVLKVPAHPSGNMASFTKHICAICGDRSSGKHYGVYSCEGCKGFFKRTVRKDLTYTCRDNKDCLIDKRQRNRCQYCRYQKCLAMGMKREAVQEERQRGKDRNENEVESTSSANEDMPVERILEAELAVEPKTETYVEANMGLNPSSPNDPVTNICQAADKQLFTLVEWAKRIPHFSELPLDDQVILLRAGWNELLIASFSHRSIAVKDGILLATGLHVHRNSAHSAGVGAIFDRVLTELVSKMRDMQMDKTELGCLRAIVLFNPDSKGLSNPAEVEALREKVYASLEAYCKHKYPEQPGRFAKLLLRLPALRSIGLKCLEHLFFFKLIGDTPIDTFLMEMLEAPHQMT
UniProt P04637, whole entry, looked up: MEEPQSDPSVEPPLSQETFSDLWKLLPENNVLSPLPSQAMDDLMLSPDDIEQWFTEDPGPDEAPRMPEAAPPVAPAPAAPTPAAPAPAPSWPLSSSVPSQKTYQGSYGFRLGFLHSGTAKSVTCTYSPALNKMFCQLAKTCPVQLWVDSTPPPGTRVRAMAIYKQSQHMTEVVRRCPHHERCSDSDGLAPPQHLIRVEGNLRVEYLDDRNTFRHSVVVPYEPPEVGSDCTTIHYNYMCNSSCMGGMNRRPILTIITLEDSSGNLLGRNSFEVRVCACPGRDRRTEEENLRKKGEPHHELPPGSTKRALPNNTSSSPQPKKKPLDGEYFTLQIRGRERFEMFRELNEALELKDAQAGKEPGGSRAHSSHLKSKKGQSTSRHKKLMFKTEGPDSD

Assays:
[1] = ATG_GAL4_TRANS: Attagene TRANS-FACTORIAL HepG2 Assay for GAL4 (Internal Marker) (AID 2282976); settings: HepG2 Attagene TRANS GAL4 internal marker reporter
Outline: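 First, HepG2 cells were transfected with reporter units under GAL4-UAS control. Next, they were treated with chemical for 24 h. Finally, RNA was reverse-transcribed, PCR-amplified, FAM-labelled and resolved by capillary electrophoresis, with induction scored against DMSO.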

[2] = biological target: Oxysterols receptor LXR-alpha (Homo sapiens) (UniProt Q13133); assay: ATG_LXRa_TRANS: Attagene TRANS-FACTORIAL HepG2 Assay for human Liver X Receptor alpha (LXRa) (AID 2282980); settings: HepG2 Attagene TRANS reporter, LXRa transactivation
Outline: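 Transfect HepG2 with GAL4-UAS multiplex reporter constructs (TRANS format, chimeric receptor-GAL4); treat 24 h; extract RNA, reverse-transcribe, PCR-amplify, FAM-label, HpaI-digest; resolve fragments by capillary electrophoresis. Upward response vs DMSO.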

[3] = biological target: Hepatocyte nuclear factor 4-alpha (Homo sapiens) (UniProt P41235); assay: ATG_HNF4a_TRANS: Attagene TRANS-FACTORIAL HepG2 Assay for human Hepatocyte Nuclear Factor 4 alpha (HNF4a) (AID 2282982); settings: HepG2 HNF4a transactivation reporter, mRNA readout
Outline: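 Activity of an exogenous HNF4a–Gal4 fusion scored as induced GAL4-UAS reporter transcripts after 24 h chemical exposure of transfected human HepG2 cells. Read-out via RT-PCR with 6-FAM labelling and capillary electrophoresis; rise over DMSO baseline.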

[4] = biological target: Nuclear receptor subfamily 4 group A member 2 (Homo sapiens) (UniProt P43354); assay: ATG_NURR1_TRANS: Attagene TRANS-FACTORIAL HepG2 Assay for human Nuclear Receptor Related Protein 1 (NURR1) (AID 2282985); settings: HepG2 Attagene TRANS reporter, mRNA readout
Outline: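 Reporter transcript induction, measured by RT-PCR with fluorescent labelling, HpaI digestion and capillary electrophoresis, after 24 hr dosing of human HepG2 cells transiently expressing an exogenous NR-Gal4 fusion with GAL4-UAS-driven reporters; DMSO as baseline.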

[5] = biological target: human RAR-related Orphan Receptor beta (RORb), RORB (gene 6096) (UniProt Q92753); assay: ATG_RORb_TRANS: Attagene TRANS-FACTORIAL HepG2 Assay for human RAR-related Orphan Receptor beta (RORb) (AID 2283010);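 as to AC50: potency for increased reporter mRNA meaning activation of RORb-Gal4 chimera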
Outline: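 Transfect HepG2 with multiple GAL4-UAS reporter transcription units; dose chemicals for 24 h; isolate RNA, reverse-transcribe and PCR-amplify reporter sequences; label, digest and resolve fragments by capillary electrophoresis; fit increases relative to DMSO.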

[6] = biological target: human RAR-related Orphan Receptor gamma (RORg), RORC (gene 6097) (UniProt P51449); assay: ATG_RORg_TRANS: Attagene TRANS-FACTORIAL HepG2 Assay for human RAR-related Orphan Receptor gamma (RORg) (AID 2283011);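 as to AC50: potency for induction of reporter transcripts above DMSO so activators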
Outline: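 First, HepG2 liver cells were transfected with GAL4-UAS-driven reporter constructs and the RORg-Gal4 fusion. Next, they were treated with chemical for 24 h. Finally, reporter mRNA was quantified by RT-PCR and capillary electrophoresis, with upward activity fitted against DMSO.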

[7] = biological target: human Retinoid X Receptor beta (RXRb), RXRB (gene 6257) (UniProt P28702); assay: ATG_RXRb_TRANS: Attagene TRANS-FACTORIAL HepG2 Assay for human Retinoid X Receptor beta (RXRb) (AID 2283013)
Outline: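 Chimeric receptor-Gal4 activity was assessed in transiently transfected human HepG2 cells after 24 h exposure. Transcripts from GAL4-UAS reporters were quantified by fluorescent RT-PCR and capillary electrophoresis, with DMSO as negative control and baseline.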

[8] = biological target: human Thyroid Receptor alpha (THRa1), THRA (gene 7067) (UniProt P10827); assay: ATG_THRa1_TRANS: Attagene TRANS-FACTORIAL HepG2 Assay for human Thyroid Receptor alpha (THRa1) (AID 2283014)
Outline: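 Reporter transcript induction, read by capillary electrophoresis of 6-FAM-labelled RT-PCR products, reflects activity of a transfected THRa1-Gal4 fusion in HepG2 liver cells. Cells were dosed for 24 h; activity was fitted in the positive direction against DMSO.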

[9] = biological target: human Peroxisome Proliferator-activated Receptor alpha (PPARa), PPARA (gene 5465) (UniProt Q07869); assay: ATG_PPARa_TRANS: Attagene TRANS-FACTORIAL HepG2 Assay for human Peroxisome Proliferator-activated Receptor alpha (PPARa) (AID 2283001);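 also: potency for gain of reporter signal over DMSO so agonist or activator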
Outline: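 Reporter transcripts quantified by RT-PCR plus capillary electrophoresis after 24 h treatment, fitted upward relative to DMSO. Cells: human HepG2 transiently carrying multiple GAL4-UAS reporter units driven by NR-Gal4 chimeras.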

[10] = biological target: human Retinoic Acid Receptor beta (RARb), RARB (gene 5915) (UniProt P10826); assay: ATG_RARb_TRANS: Attagene TRANS-FACTORIAL HepG2 Assay for human Retinoic Acid Receptor beta (AID 2283004)
Outline: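 Transient transfection of HepG2 with multiple reporter units → chemical dosing, 24 h → total RNA isolation → RT with oligo(dT) → reporter-specific PCR, 6-FAM primer extension, HpaI digest → capillary electrophoresis. Positive direction vs DMSO control.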

[11] = biological target: Retinoic acid receptor alpha (Homo sapiens) (UniProt P10276); assay: ATG_RARa_TRANS: Attagene TRANS-FACTORIAL HepG2 Assay for human Retinoic Acid Receptor alpha (RARa) (AID 2283005);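 as to AC50: potency for increased reporter signal meaning RARa activation over DMSO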
Outline: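 Reporter transcripts, measured by RT-PCR with fluorescent labeling and capillary electrophoresis after 24 h dosing, reflect activity of an exogenous human RARa–GAL4 fusion in transiently transfected HepG2. Fitted for increase relative to DMSO.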

[12] = biological target: human Retinoic Acid Receptor gamma (RARg), RARG (gene 5916) (UniProt P13631); assay: ATG_RARg_TRANS: Attagene TRANS-FACTORIAL HepG2 Assay for human Retinoic Acid Receptor gamma (RARg) (AID 2283009);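 as to AC50: AC50 is for reporter induction above DMSO meaning RARg activation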
Outline: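 TRANS format measured activity of exogenous NR-GAL4 fusion (RARg) in transfected HepG2 liver cells after 24 h dosing. Induced reporter RNA was detected by RT-PCR/capillary electrophoresis fluorescence, analysed in the positive direction against DMSO.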

[13] = biological target: human Vitamin D Receptor (VDR), VDR (gene 7421) (UniProt P11473); assay: ATG_VDR_TRANS: Attagene TRANS-FACTORIAL HepG2 Assay for human Vitamin D Receptor (VDR) (AID 2283022)
Outline: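 Steps: transfect HepG2 with GAL4-UAS-driven reporter constructs; dose compounds 24 h; isolate RNA, reverse-transcribe, PCR-amplify with 6-FAM-labelled primer extension and HpaI digestion; quantify fragments by capillary electrophoresis relative to DMSO.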

[14] = biological target: Retinoic acid receptor RXR-alpha (Homo sapiens) (UniProt P19793); assay: OT_NURR1_NURR1RXRa_0480: Odyssey Thera (OT) 8-hour HEK293T Protein Complementation Assay for Nurr1/retinoid X receptor (RXR) (AID 2283385)
Outline: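 Interaction of bait and prey reconstitutes a functional reporter, whose fluorescence was measured in HEK293T cells dosed with compound for 8 hours. Signal gain relative to DMSO defined the single endpoint.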

[15] = biological target: Retinoic acid receptor RXR-alpha (Homo sapiens) (UniProt P19793); assay: OT_NURR1_NURR1RXRa_1440: Odyssey Thera (OT) 24-hour HEK293T Protein Complementation Assay for Nurr1/retinoid X receptor (RXR) (AID 2283386)
Outline: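 Steps: fragment-tagged Nurr1 and RXRα expressed in HEK293T; compounds added; after 24 h, complemented reporter quantified by fluorescence intensity; signal increase over DMSO fitted as the single endpoint.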

[16] = TOX21_p53_BLA_p3_viability: Viability Assessment in the Tox21 HCT-116 p53 Agonism Beta-lactamase Assay, Phase 3 (AID 2283593);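 also: cells exposed to compound for 16 h before reading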
Outline: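 Cellular ATP was quantified by CellTiter-Glo luminescence, read after 30 min at room temperature. Beforehand, HCT116 cells (4000/well) received compound 5 h post-seeding, 217-fold diluted from DMSO, then incubated 16 h at 37C.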

[17] = TOX21_p53_BLA_p4_viability: Viability Assessment in the Tox21 HCT-116 p53 Agonism Beta-lactamase Assay, Phase 4 (AID 2283597);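 also: hits lower the luminescence signal meaning cytotoxicity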
Outline: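 Readout: ATP luminescence (CellTiter-Glo), measured 30 min after reagent addition at RT. The reagent followed a 2 h CCF4-AM incubation, and the cells had been exposed to compound for 16 h at 37C.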

[18] = TOX21_p53_BLA_p2_viability: Viability Assessment in the Tox21 HCT-116 p53 Agonism Beta-lactamase Assay, Phase 2 (AID 2283591);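 also: compound exposure lasted 16 h at 37 °C; actives lower the ATP signal meaning cytotoxicity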
Outline: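 Cytotoxicity readout: CellTiter-Glo ATP luminescence, 30 min at room temperature, after the beta-lactamase read. Cells were HCT116 exposed 16 h at 37C to compounds pin-transferred at 217-fold dilution from DMSO stocks.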

[19] = biological target: Cellular tumor antigen p53 (Homo sapiens) (UniProt P04637); assay: TOX21_p53_BLA_p5_ratio: Tox21 HCT-116 p53 Agonism Beta-lactamase Assay, Ratio, Phase 5 (AID 2283599)
Outline: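 Beta-lactamase reporter ratio (blue 460 nm over green 530 nm, 405 nm excitation) after 2 h CCF4-AM loading, in HCT-116 cells exposed 16 h at 37 C to compounds pinned at 217-fold dilution. Increases relative to DMSO baseline scored.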

[20] = biological target: Retinoic acid receptor RXR-alpha (Homo sapiens) (UniProt P19793); assay: ATG_RXRa_TRANS: Attagene TRANS-FACTORIAL HepG2 Assay for human Retinoid X Receptor alpha (RXRa) (AID 2283012)
Outline: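 Measures exogenous chimeric NR-GAL4 activity in transfected HepG2 liver cells after 24 h of dosing. Induced reporter mRNA was detected by RT-PCR with capillary electrophoresis, and gain of signal was analysed against DMSO.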

Measured: AC50

Nc1ccc(Cl)cc1C(=O)c1ccccc1
inconclusive: [2] 33.4 µM | [3] 149 µM | [4] 181 µM | [5] 100 µM
active: [7] 21.9 µM
inactive: [1] | [6] | [8]

FC(F)C(F)(F)OCC(Cn1cncn1)c1ccc(Cl)cc1Cl (centres undefined)
active: [11] 13.2 µM | [17] 60.5 µM
inactive: [10] | [12] | [16]
inconclusive: [2] 50 µM | [3] 50 µM | [9] 13.5 µM | [5] 7.86 µM | [6] 50 µM | [7] 50 µM | [13] 9.92 µM | [14] 85 µM and 49.8 µM | [15] 91 µM and 38.8 µM

c1ccc(-c2ccccc2)cc1
active: [7] 110 µM
inconclusive: [2] 158 µM | [3] 110 µM | [10] 185 µM | [11] 110 µM | [12] 170 µM | [5] 110 µM | [6] 110 µM | [8] 110 µM | [14] 50 µM and 96.1 µM | [15] 50 µM | [18] 75.8 µM | [16] 46.1 µM | [17] 46.1 µM and 82.5 µM | [19] 46.5 µM

CCNC(=O)NC(=O)C(C#N)=NOC
inconclusive: [2] 91.8 µM | [9] 50 µM | [10] 50 µM | [12] 50 µM | [7] 50 µM | [13] 50 µM
active: [15] 29.6 µM
inactive: [11] | [5] | [20] | [15]
